Data published in US8466110B2, “Use of an agent that restores tissue perfusion and oxygenation” (Duke University, priority 2005, dated 2013).

Tested on: baroreceptor and peripheral vasculature
Experiment: Summary of bioactivity of cell-free SNO-Hb and oxy-Hb (Table 3)
Format: in vivo, rat

| Substance | NO-related chemical fate (vascular pO2 at injection site any) | NO-related chemical fate (vascular pO2 at injection site high) | NO-related chemical fate (vascular pO2 at injection site low) |
| --- | --- | --- | --- |
| oxyhemoglobin [oxy-Hb, reference compound] | Met-Hb + | – | – |
| S-nitrosohemoglobin [SNO-Hb] | – | SNO-Hb | Met-Hb + iron-nitrosyl Hb |
